Laboratory results: article PMC8782983
These are yes or no findings as the source states them, for the method shown. In cells and extracts the contact can be indirect. A yes stands for co-enrichment or nearness to the bait. Other partners may have been found. Tags and fused reporters may be left off the sequences shown.

By UniProt entry, the sequences of proteins in these tests, tags left out.
UniProt Q9GZV4: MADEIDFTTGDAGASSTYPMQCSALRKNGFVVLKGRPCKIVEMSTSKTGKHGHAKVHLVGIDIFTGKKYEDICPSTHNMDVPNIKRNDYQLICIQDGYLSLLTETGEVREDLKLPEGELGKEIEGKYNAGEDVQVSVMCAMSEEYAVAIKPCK

Target: T1, HERC3-Flag (HECT and RLD domain containing E3 ubiquitin-protein ligase 3) (UniProt Q15034)
T1 sequence: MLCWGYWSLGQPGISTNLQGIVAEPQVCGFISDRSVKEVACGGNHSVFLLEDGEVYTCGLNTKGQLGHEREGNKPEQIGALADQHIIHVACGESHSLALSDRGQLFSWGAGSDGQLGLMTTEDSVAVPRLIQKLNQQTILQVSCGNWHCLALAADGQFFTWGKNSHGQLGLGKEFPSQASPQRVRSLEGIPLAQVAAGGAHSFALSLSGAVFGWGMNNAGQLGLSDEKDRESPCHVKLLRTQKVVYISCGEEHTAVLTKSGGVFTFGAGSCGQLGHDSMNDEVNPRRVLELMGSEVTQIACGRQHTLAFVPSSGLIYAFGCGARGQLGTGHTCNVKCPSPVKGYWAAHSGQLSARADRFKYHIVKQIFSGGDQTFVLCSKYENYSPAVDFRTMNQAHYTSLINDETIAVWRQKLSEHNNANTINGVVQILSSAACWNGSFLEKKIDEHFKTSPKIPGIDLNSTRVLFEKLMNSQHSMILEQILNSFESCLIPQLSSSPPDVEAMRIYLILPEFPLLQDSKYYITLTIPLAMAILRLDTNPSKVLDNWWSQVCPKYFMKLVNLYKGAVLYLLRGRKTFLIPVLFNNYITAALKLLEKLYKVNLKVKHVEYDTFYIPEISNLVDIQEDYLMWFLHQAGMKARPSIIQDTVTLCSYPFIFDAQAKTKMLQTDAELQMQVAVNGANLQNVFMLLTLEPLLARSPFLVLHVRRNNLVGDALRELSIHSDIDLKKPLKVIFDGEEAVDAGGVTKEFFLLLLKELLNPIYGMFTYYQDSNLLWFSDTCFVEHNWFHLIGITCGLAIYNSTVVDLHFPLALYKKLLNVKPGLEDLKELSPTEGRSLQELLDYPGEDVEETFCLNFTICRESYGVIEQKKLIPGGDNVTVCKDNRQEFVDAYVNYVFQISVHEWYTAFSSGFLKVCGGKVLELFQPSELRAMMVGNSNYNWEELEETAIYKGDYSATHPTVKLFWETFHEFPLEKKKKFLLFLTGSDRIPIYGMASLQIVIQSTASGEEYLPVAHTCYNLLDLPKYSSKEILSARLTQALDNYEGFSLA
Test: affinity purification with mass spectrometry; HERC3-Flag transfected into HCT116 cells, harvested after 48 h; lysates enriched with anti-Flag affinity gels, eluted in 8 M urea buffer, mass spectrometry

EIF5A2, endogenous (from UniProt Q9GZV4 1-153)
binding: binds
